Here are results for 26 molecules from PubChem BioAssay AID256 (DTP/NCI, 2004).

The assay deals with CD2F1 mice, L1210 leukemia ip, survival T/C. In words: NCI In Vivo Anticancer Drug Screen. Data for tumor model L1210 Leukemia (intraperitoneal) in CD2F1 (CDF1) mice. Particulars: higher T/C = longer survival. The procedure: The antitumor activity of compounds was measured in mice bearing transplantable tumors. Survival or tumor size were measured and the results are expressed as the measurement made in the treated group (T) divided by the measurement made in the vehicle treated control group (C). The tumor model used in this assay is L1210 Leukemia (intraperitoneal) in CD2F1 (CDF1) mice

Where [1] appears, read: T/C endpoint: mean survival time, dose: 100.0 mg/kg/injection, schedule: Q01DX001 (ip), vehicle: saline with Tween-80.
[2] abbreviates: T/C endpoint: mean survival time, dose: 400.0 mg/kg/injection, schedule: Q04DX003 (ip), vehicle: saline with Tween-80.
Setting [3] is: T/C endpoint: mean survival time, dose: 200.0 mg/kg/injection, schedule: Q01DX009 (ip), vehicle: saline.
The mark [4] stands for this setting: T/C endpoint: mean survival time, dose: 400.0 mg/kg/injection, schedule: Q04DX002 (ip), vehicle: saline with Tween-80.
The mark [5] stands for this setting: T/C endpoint: mean survival time, dose: 200.0 mg/kg/injection, schedule: Q04DX003 (ip), vehicle: saline with Tween-80.
[6] abbreviates: T/C endpoint: mean survival time, dose: 400.0 mg/kg/injection, schedule: Q01DX009 (ip), vehicle: saline with Tween-80.

The structures appear in SMILES notation. The list shows only some results of the screen, not a fair sample: it gathers tests that were run many times, whatever their T/C, doses with no T/C, and many T/C values between a quarter and a half above the control. Other doses and runs of a compound stand elsewhere. T/C gives the treated animals as a percentage of the vehicle group. Some entries give survivors of the animals treated and no T/C: the source holds a T/C of zero for them, seemingly a mark for toxic or unscored doses. Some survivor counts are full or nearly so, which does not show that the dose was tolerated: survival well below the control is almost never listed, so the zero probably covers shortened survival too. Counts of survivors are from the toxicity check (mostly the fifth day) where no day follows; animals may have died later. Schedule codes are those of the source, read here as Q, the interval in days (D) or hours (H), X, the number of doses. Some entries hold several experiments; the results are listed from low to high. For survival time, the PubChem record calls one and a half times the control and up active, and a quarter to a half above the control has no call in these data; cut-offs in other NCI protocols can differ. Marks such as (2×) count equal records among those shown. Some T/C values are followed by the survivors on the day toxicity was checked, most often the fifth; without a count, all were alive then.

Consider `O=C(CCc1ccc(O)cc1)ON1C(=O)CCC1=O`, for which the survivor count runs as follows: (T/C endpoint: mean survival time, dose: 100.0 mg/kg/injection, schedule: Q01DX009 (ip), vehicle: Klucel (hydroxypropylcellulose) (HPC)) 3 of 3; (T/C endpoint: mean survival time, dose: 200.0 mg/kg/injection, schedule: Q01DX009 (ip), vehicle: Klucel (hydroxypropylcellulose) (HPC)) 2 of 3.

Consider `Nc1nc(=O)n(CCCOc2ccc([N+](=O)[O-])c(Cl)c2)cc1-c1ccc(Cl)c(Cl)c1`, for which the survivor count is, setting by setting: under setting [1], 6 of 6; (T/C endpoint: mean survival time, dose: 400.0 mg/kg/injection, schedule: Q01DX001 (ip), vehicle: saline with Tween-80) 5 of 6.

In the case of `OC(c1ccccc1)(c1ccccc1)c1ccccc1C(O)(c1ccccc1)c1ccccc1`, the survivor count (T/C endpoint: mean survival time, dose: 400.0 mg/kg/injection, schedule: Q01DX001 (ip), vehicle: Klucel (hydroxypropylcellulose) (HPC)) is 3 of 3.

With `O=C=NC(c1ccccc1)(c1ccccc1)c1ccccc1`, the survivor count under setting [2] was 2 of 6.

For the molecule `CC1=CCS(=O)(=O)C1`, the survivor count under setting [3] is given as 0 of 6.

In the case of `C1OC1C1CO1` (configuration not stated), the survivor count (T/C endpoint: mean survival time, dose: 40.0 mg/kg/injection, schedule: Q01DX009 (ip), vehicle: saline) was 3 of 6.

Regarding `NC(=S)NNc1ccccn1`, the survivor count (T/C endpoint: mean survival time, dose: 100.0 mg/kg/injection, schedule: Q04DX002 (ip), vehicle: saline) was 0 of 3.

Consider `Cc1ccc(OC(=O)Nc2cccc3ccccc23)cc1C`, for which the survivor count under setting [4] is given as 3 of 3.

Regarding `CSC1=CC(=O)C=C(C)C1=O`, the survivor count runs as follows: (T/C endpoint: mean survival time, dose: 75.0 mg/kg/injection, schedule: Q01DX001 (ip), vehicle: other) 1 of 6; (T/C endpoint: mean survival time, dose: 150.0 mg/kg/injection, schedule: Q01DX001 (ip), vehicle: other) 0 of 6; (T/C endpoint: mean survival time, dose: 300.0 mg/kg/injection, schedule: Q01DX001 (ip), vehicle: other) 0 of 6.

As for `CC(=O)NC(=O)CC(O)(c1ccccc1)c1ccccc1`, under setting [1], the survivor count is 6 of 6.

Consider `CCOP1(=O)OCC(C(C)(C)C)CO1` (configuration not stated), for which, where the note is “T/C endpoint: mean survival time, dose: 50.0 mg/kg/injection, schedule: Q04DX003 (ip), vehicle: Klucel (hydroxypropylcellulose) (HPC)”, the survivor count is reported as 0 of 6.

For `O=C1OC(c2ccccc2)(C2(c3ccccc3)OC(=O)c3ccccc32)c2ccccc21` (configuration not stated), the survivor count reads like this: under setting [5], 6 of 6; under setting [2], 6 of 6.

On to `N#CC(C#N)=Cc1ccc(Cl)cc1`, for which the survivor count runs as follows: under setting [5], 3 of 3; under setting [2], 0 of 3.

`Oc1ccc(/C=N/NC(=S)NN2CCOCC2)nc1`: the T/C (T/C endpoint: mean survival time, dose: 50.0 mg/kg/injection, schedule: Q04DX002 (ip), vehicle: saline with Tween-80) was 133 % of control. The survivor count is, setting by setting: (T/C endpoint: mean survival time, dose: 200.0 mg/kg/injection, schedule: Q04DX002 (ip), vehicle: saline with Tween-80) 1 of 3; under setting [4], 0 of 3.

Regarding `COC(CNCCO)c1ccccc1` (configuration not stated), the survivor count by setting is: (T/C endpoint: mean survival time, dose: 200.0 mg/kg/injection, schedule: Q01DX001 (ip), vehicle: saline) 3 of 6; (T/C endpoint: mean survival time, dose: 400.0 mg/kg/injection, schedule: Q01DX001 (ip), vehicle: saline) 1 of 6.

On to `O=C(CN1CC1)NCCCCCCCCCNC(=O)CN1CC1`, for which the T/C (T/C endpoint: mean survival time, dose: 50.0 mg/kg/injection, schedule: Q01DX001 (ip), vehicle: carboxymethylcellulose (CMC)) is 126 % of control. In addition, the survivor count (T/C endpoint: mean survival time, dose: 75.0 mg/kg/injection, schedule: Q01DX001 (ip), vehicle: carboxymethylcellulose (CMC)) is 1 of 6.

Consider `CC(C)(C)OC(=O)NCC(=O)ON1C(=O)CCC1=O`, for which the survivor count under setting [2] is on record as 3 of 6.

In the case of `C=C1CC2(OC1=O)C(=O)N(C)c1ccc(I)cc12` (configuration not stated), the survivor count was 3 of 6 (T/C endpoint: mean survival time, dose: 50.0 mg/kg/injection, schedule: Q01DX009 (ip), vehicle: saline); 1 of 6 and 2 of 6 (T/C endpoint: mean survival time, dose: 100.0 mg/kg/injection, schedule: Q01DX009 (ip), vehicle: saline); 0 of 6 and 1 of 6 under setting [3].

As to `Cc1cc2c(c3oc(C4(C)OC4C4OC4C)cc(=O)c13)C(=O)c1c(O)c(C3CC(C)(N(C)C)C(O)C(C)O3)cc(C3CC(N(C)C)C(O)C(C)O3)c1C2=O` (configuration not stated), the survivor count reads like this: (T/C endpoint: mean survival time, dose: 80.0 micrograms/kg/injection, schedule: Q01DX009 (ip), vehicle: water) 7 of 10; (T/C endpoint: mean survival time, dose: 160.0 micrograms/kg/injection, schedule: Q01DX009 (ip), vehicle: water) 0 of 10.

As for `Cn1c(=O)c2c(ncn2C)n(C)c1=O`, the T/C is 94, 98, 99, 103 % of control (T/C endpoint: mean survival time, dose: 128.0 mg/kg/injection, schedule: Q01DX001 (sc), vehicle: water, evaluated on day 7); 100 % of control (T/C endpoint: mean survival time, dose: 128.0 mg/kg/injection, schedule: Q01DX001 (sc), vehicle: water, evaluated on day 40); 98 % of control (T/C endpoint: mean survival time, dose: 128.0 mg/kg/injection, schedule: Q01DX001 (sc), vehicle: water, evaluated on day 60); 95, 98 (2×), 104 % of control (T/C endpoint: mean survival time, dose: 160.0 mg/kg/injection, schedule: Q01DX001 (sc), vehicle: water, evaluated on day 7); 98 % of control (T/C endpoint: mean survival time, dose: 160.0 mg/kg/injection, schedule: Q01DX001 (sc), vehicle: water, evaluated on day 40); 104 % of control (T/C endpoint: mean survival time, dose: 160.0 mg/kg/injection, schedule: Q01DX001 (sc), vehicle: water, evaluated on day 60). For the same molecule, the T/C (T/C endpoint: mean survival time, dose: 200.0 mg/kg/injection, schedule: Q01DX001 (sc), vehicle: water, evaluated on day 7) is 96, 98, 101, 103 % of control; the T/C (T/C endpoint: mean survival time, dose: 200.0 mg/kg/injection, schedule: Q01DX001 (sc), vehicle: water, evaluated on day 40) is 101 % of control; the T/C (T/C endpoint: mean survival time, dose: 200.0 mg/kg/injection, schedule: Q01DX001 (sc), vehicle: water, evaluated on day 60) is 103 % of control; the T/C (T/C endpoint: mean survival time, dose: 250.0 mg/kg/injection, schedule: Q01DX001 (sc), vehicle: water, evaluated on day 7) is 96, 98, 99, 109 % of control; the T/C (T/C endpoint: mean survival time, dose: 250.0 mg/kg/injection, schedule: Q01DX001 (sc), vehicle: water, evaluated on day 40) is 100 % of control [9 of 10 alive]; the T/C (T/C endpoint: mean survival time, dose: 250.0 mg/kg/injection, schedule: Q01DX001 (sc), vehicle: water, evaluated on day 60) was 109 % of control.

As for `NC(N)=N/N=C\c1c2ccccc2cc2ccccc12`, the T/C (T/C endpoint: mean survival time, dose: 6.25 mg/kg/injection, schedule: Q01DX009 (ip), vehicle: water) was 134 % of control. For the same molecule, the survivor count is, setting by setting: (T/C endpoint: mean survival time, dose: 12.5 mg/kg/injection, schedule: Q01DX009 (ip), vehicle: water) 2 of 6; (T/C endpoint: mean survival time, dose: 25.0 mg/kg/injection, schedule: Q01DX009 (ip), vehicle: water) 1 of 6; (T/C endpoint: mean survival time, dose: 50.0 mg/kg/injection, schedule: Q01DX009 (ip), vehicle: water) 0 of 6; (T/C endpoint: mean survival time, dose: 100.0 mg/kg/injection, schedule: Q01DX009 (ip), vehicle: water) 0 of 6; (T/C endpoint: mean survival time, dose: 200.0 mg/kg/injection, schedule: Q01DX009 (ip), vehicle: water) 0 of 6.

Consider `COc1ccc(C(N)=O)cc1N=NN(C)C`, for which the T/C (T/C endpoint: mean survival time, dose: 18.75 mg/kg/injection, schedule: Q01DX009 (ip), vehicle: Klucel (hydroxypropylcellulose) (HPC)) is 131 % of control. Besides, the survivor count is on record as 3 of 6 (T/C endpoint: mean survival time, dose: 150.0 mg/kg/injection, schedule: Q01DX009 (ip), vehicle: Klucel (hydroxypropylcellulose) (HPC)) and 0 of 6 (T/C endpoint: mean survival time, dose: 300.0 mg/kg/injection, schedule: Q01DX009 (ip), vehicle: Klucel (hydroxypropylcellulose) (HPC)).

In the case of `CCCCOC(=S)SCCSC(=S)OCCCC`, under setting [6], the survivor count is 4 of 6.

For `O=c1[nH]c(=O)n2ncc(Br)c2[nH]1`, the survivor count (T/C endpoint: median survival time, dose: 200.0 mg/kg/injection, schedule: Q01DX005 (ip), vehicle: saline) was 1 of 6.

For the molecule `CN1CCC(C#N)(c2ccccn2)CC1`, the survivor count (T/C endpoint: mean survival time, dose: 20.0 mg/kg/injection, schedule: Q01DX009 (ip), vehicle: saline with Tween-80) is 3 of 6.

Regarding `Nc1cccc2scnc12`, under setting [6], the survivor count is listed as 4 of 6.
